Assay [1] addresses 원숭이 CD154(CD40L) 항원 (Rhesus monkey) (UniProt P63304). Description: ELISA, coated CD40L antigen, hybridoma supernatant. In general terms: In an ELISA, binding on a coated surface is turned into a signal by an enzyme label.
Assay [2] shares this target. Put plainly: ELISA by concentration, purified biotinylated antibody (m9C3.Aff-biotin, m9C3.IEX-biotin).

Chains of the proteins cited; added tags and fusions are not shown. Residues count along the entry.
UniProt P63304, residues 113-261: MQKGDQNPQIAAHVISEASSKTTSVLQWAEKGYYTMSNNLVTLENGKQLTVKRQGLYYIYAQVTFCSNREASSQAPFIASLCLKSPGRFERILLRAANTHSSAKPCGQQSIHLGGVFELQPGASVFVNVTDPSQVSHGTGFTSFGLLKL

These are yes or no findings as the source states them, for the method shown. Some results given as binding are weak or reduced against the parent protein; the word gives no strength.

B1: RM9C3 융합 세포주가 생산하는 항 원숭이 CD154 항체 (antibody, V domains shown)
VH: EVQLQQSGPELVKPGASVKISCKTSGYTFTEYTIHWVKQSHGESLEWIGGIYPNTGGTNYNQKFKGKATLTVDKSSSTVYMEFRGLTSEDSAVYYCARLLFDCDVDWFAYWGQGTLVTVSA
VL: NIVMTQTPKFLLVSAGDRITITCKASQSVNNNVAWYHQKPGQSPKLLIYYASNRYIGVPDRFTGSGYGTDFTFTISTVQAEDLAVYFCQQDHSSLTFGAGTKLELKR
For B1, the binding entry in assay [1] and in assay [2] was “binds” throughout.

The record behind these values is patent KR20160117808A.
